Positions count from the first letter of the chain named. These are yes or no findings as the source states them, for the method shown. Some results given as binding are weak or reduced against the parent protein; the word gives no strength.
What was measured:
[1] = molecular target: full-length human Tau (flTau) (human) (UniProt P10636); experiment: direct ELISA, flTau coated at 1 µg/mL, hybridoma supernatant dilutions
[2] = molecular target: human Tau monomer (recombinant 2N4R isoform, amino acids 2-441) (human) (UniProt P10636); experiment: capture ELISA, antibody on anti-IgG plate, biotinylated monomeric Tau titrated
[3] = molecular target: phosphorylated Tau (pTau) (human) (UniProt P10636); experiment: direct ELISA, pTau coated at 1 µg/mL, hybridoma supernatant dilutions
46-60 (human) = 46-60 (human) (UniProt P10636); experiment: ELISA on Tau peptides (Example 8)

The chains behind the UniProt entries cited, without tags or fusion partners. Where a name states a change or a piece, a line headed by the entry shows the natural chain unless it says otherwise. A line that says so, or that is headed by a name, gives the form on record, which may keep a tag or linker.
UniProt P10636: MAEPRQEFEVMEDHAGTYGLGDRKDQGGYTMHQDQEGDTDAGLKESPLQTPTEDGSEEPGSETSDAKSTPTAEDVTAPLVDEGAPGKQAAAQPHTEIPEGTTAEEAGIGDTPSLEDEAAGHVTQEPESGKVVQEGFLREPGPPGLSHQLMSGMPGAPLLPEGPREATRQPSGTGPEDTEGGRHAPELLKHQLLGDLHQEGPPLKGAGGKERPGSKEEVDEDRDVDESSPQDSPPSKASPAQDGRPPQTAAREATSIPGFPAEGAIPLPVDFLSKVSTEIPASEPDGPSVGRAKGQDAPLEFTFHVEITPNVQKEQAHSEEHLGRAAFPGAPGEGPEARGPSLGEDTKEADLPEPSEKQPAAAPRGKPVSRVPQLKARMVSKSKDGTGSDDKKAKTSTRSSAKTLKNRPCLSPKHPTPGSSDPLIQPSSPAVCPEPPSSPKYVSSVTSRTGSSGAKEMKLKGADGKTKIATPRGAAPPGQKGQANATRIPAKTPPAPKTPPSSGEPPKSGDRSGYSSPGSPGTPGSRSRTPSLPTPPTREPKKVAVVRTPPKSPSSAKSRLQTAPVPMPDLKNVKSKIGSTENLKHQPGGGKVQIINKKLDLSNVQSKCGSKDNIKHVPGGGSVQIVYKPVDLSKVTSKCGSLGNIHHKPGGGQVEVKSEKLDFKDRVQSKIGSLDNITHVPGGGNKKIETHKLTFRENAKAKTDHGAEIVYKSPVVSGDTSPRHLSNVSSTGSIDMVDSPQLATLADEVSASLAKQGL
human Tau monomer (recombinant 2N4R isoform, amino acids 2-441) (P10636, form named): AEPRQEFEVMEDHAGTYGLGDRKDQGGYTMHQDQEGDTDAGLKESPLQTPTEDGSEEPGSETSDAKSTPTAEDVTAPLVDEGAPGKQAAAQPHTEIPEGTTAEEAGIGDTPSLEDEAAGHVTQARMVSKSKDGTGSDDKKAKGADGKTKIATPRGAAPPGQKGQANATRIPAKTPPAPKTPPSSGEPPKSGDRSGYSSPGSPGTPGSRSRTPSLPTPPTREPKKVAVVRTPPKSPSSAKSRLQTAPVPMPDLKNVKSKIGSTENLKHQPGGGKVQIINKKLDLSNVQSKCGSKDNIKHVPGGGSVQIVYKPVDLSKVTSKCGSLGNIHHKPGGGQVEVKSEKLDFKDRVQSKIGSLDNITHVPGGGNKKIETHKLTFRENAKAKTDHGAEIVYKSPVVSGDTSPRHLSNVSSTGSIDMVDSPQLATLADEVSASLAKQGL

B1: 52F6-F11 (antibody, V domains shown)
VH: QVQLQQSGTELAKPGASVKLSCKASGYTFTHYWMHWIKQRPGQGLEWIGYIYPTNDYTKYNQNFRDKATLTADESSNSAYMQLNSLTYEDSAVYYCARAGNRVFDFWGQGTTLTVSS
VL: QAVVTQESALTTSPGETVTLTCRSSTGAVTTSNFANWVQEKPDHLFTGLIGGTNNRAPGVPARFSGSLIGDKAALTITGAQTEDEAIYFCALWYSNLWVFGGGTKLTVL
binding [1]: binds | binding [2]: binds | binding [3]: binds

B2: 3A4-H4 (antibody, mouse IgG2a, V domains shown)
VH: EVQLVESGGDLVKPGGSLKLSCAASGFTFSSYGMSWVRQTPDKRLEWVATISSGGTYTYYPDSVKGRFTISRDNAKNTLYLQMSSLKSEDTAMYFCATSYDGAMDYWGQGTSVTVSS
VL: DVLMTQTPLSLPVSLGDQASISCRSSQNIVHSNGNTYLEWYLQKPGQSPKLLIYKVSNRFSGVPDRFSGSGSGTDFTLKISRVEAEDLGVYYCFQGTLVPWTFGGGTKLEIK
binding (46-60 (human)): no binding (tested: not shown on the sheet)

B3: 19H6-F7 (antibody, mouse IgG2a, V domains shown)
VH: B2 VH with F95Y, T98P
VL: B2 VL with N28S, T97S
binding (46-60 (human)): no binding (tested: not shown on the sheet)

B4: 37D3-H9 (antibody, mouse IgG2a, V domains shown)
VH: B2 VH with V12A, A23T, F27L, T28I, S30R, S52N, F95Y, T98N, D101S
VL: B2 VL with V2D, M4L, Q18P, N28S, L38F, T97S
binding (46-60 (human)): no binding (tested: not shown on the sheet)

B5: 89F4-A1 (antibody, mouse IgG2a, V domains shown)
VH: EVQLVESGGGLVQPKGSLKLSCAASGFTFNTYAMNWVRQAPGKGLEWVARIRSKSNNYAAYFADSVKDRFTISRDDSQTMLYLQMNNLKSEDTAMYYCVSGGNYVPFAYWGQGTLVTVSA
VL: NIMMTQSPSSLAVSAGEKVTMSCKSSQSVFYSSEQRNYLAWYQQKPGQSPKLLISWASTRESGVPDRFTGSGSGTDFTLTISSVQGEDLAVYYCHQYLSSFTFGSGTKLEIK
binding (46-60 (human)): no binding (tested: not shown on the sheet)

B6: 123E9-A1 (antibody, mouse IgG2a, V domains shown)
VH: EVQLQQSGPELVKPGASVKMSCKASGYTFTDYYMKWVKQSHGKSLEWIGDIDPNNGGTSYNQKFKGKATLTVDKSSSTAYMQLNSLTSEDSAVYYCARSAGFGDSFSFWGLGTLVTVSA
VL: B2 VL with N28S, V90F, T97S, L98H, W101P
binding (46-60 (human)): no binding (tested: not shown on the sheet)

Source: patent publication US20190112361A1
